# Measurements published in the supplement of paper PMC8007513.
# This is one part of the list. Many values rest on one well or one pass, so single values are uncertain.
# Tested on: Saccharomyces cerevisiae BY4743
# Test: growth (OD600) relative to untreated control; higher = less growth inhibition
# Conditions: compound concentration: 133 uM; 20 h
# Protocol: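 NMCCC compounds (133 uM, no IPBC) tested alone against Saccharomyces cerevisiae BY4743 in YPD, 96-well plates, starting OD600 ~0.1. Growth was read as OD600 at 20 h and expressed as % of the untreated control. Single pass.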
row,SMILES,growth
1,CCc1noc(CSc2nnc3ccc(S(=O)(=O)N(CC)CC)cn23)n1,98.5%
2,O=C(COC(=O)c1ncc(Cl)c(Cl)c1Cl)NC(=O)c1ccccc1,97.1%
3,Cc1cccc(Cl)c1NS(=O)(=O)c1ccc(C)c(N2CCCC2=O)c1C,116%
4,CCOC(=O)c1cc(C(=O)N2CCOCC2)nn1C,96.2%
5,COc1ccc(-c2noc(N(C)CC(=O)Nc3ccc(Br)cc3C)n2)cc1,88.1%
6,Cc1ccc(NC(=O)C(CC(C)C)NS(=O)(=O)c2ccc3c(c2)oc(=O)n3C)c(C)c1 (stereo not drawn),95.8%
7,CSc1nc(C)c(CCC(=O)OCc2ccc(C(=O)N3CCCC3)cc2)c(C)n1,109%
8,Cc1ccc(CNC(=O)Cc2cn3ccsc3n2)n1C,104%
9,CC(C)C(Nc1ccc(C(F)(F)F)cc1Cl)C(=O)OCC(=O)N1CCNC1=O (stereo not drawn),91.9%
10,CN(C)CCN(Cc1ccccc1)C(=O)Cn1c(=O)oc2ccccc21,98.4%
11,CCC(Sc1nc2ccc[nH]c-2n1)C(=O)NCC1CCCO1 (stereo not drawn),99.2%
12,Cc1noc(C)c1CCC(=O)N1CCN(CC2CCCO2)CC1 (stereo not drawn),98.3%
13,CCS(=O)(=O)c1ccccc1C(=O)OCC(=O)N1CCNC1=O,117%
14,CC\1(C)CC2=CC=CC=C2\C(=N1)CC(O)(C(F)(F)F)C(F)(F)F,100%
15,Cc1ccc(NC(=O)C2(N(C)C(=O)c3ccccn3)CCCCC2)cc1Br,105%
16,COc1cc(OC)c(NS(=O)(=O)c2ccc3c(c2)CCCC(=O)N3)cc1Cl,102%
17,CCc1nn2c(Cc3c(Cl)cccc3Cl)nnc2s1,103%
18,Cn1ccc(S(=O)(=O)N2CCC(C(=O)Nc3ccccc3OCC(F)(F)F)CC2)c1,108%
19,CCN(CC)CCS\C1=N\C(=C/C(=O)N1C2=CC=CC=C2C)O,98.4%

row,SMILES,growth
1,O=C(CNC(=O)c1sc2ccccc2c1Cl)OC1CCOC1=O (stereo not drawn),104%
2,COC(=O)COC1=CC=C2C(=O)\C(=C/OC2=C1)OC3=CC=C(C=C3)C(C)(C)C,111%
3,Cc1ccc(S(C)(=O)=O)cc1C(=O)Nc1nc2cc(Cl)ccc2n1C,84.4%
4,CCC(=O)Nc1ccc(S(=O)(=O)N2CCN(C)c3ccccc32)cc1,103%
5,CCCC(C(=O)Nc1cc(OC)c(OC)c(OC)c1)N1Cc2ccccc2C1=O (stereo not drawn),97.4%
6,Cc1nc(COC(=O)C(C)Oc2ccc(C#N)cc2)nc2ccccc12 (stereo not drawn),101%
7,CCOc1ccc(S(=O)(=O)N2CCOCC2)cc1NC(=O)CCc1ccsc1,101%
8,COC(=O)c1cccc2c1CCCN2Cc1ncc(C(C)(C)C)o1,105%
9,CC1(C)CC(NC(=O)CNC(=O)Cc2nnc(O)c3ccccc23)CC(C)(C)N1,108%
10,CCOc1ccc(CNC(=O)CC(c2ccccc2C)n2cccc2)cc1OC (stereo not drawn),106%
11,CCCC(=O)N\C1=C(\C(=O)C2=CC=CC=C2N1CC)C3=CC=CS3,111%
12,CCOC(=O)c1sc(NC(=O)c2nc3nccc(C)n3n2)nc1C,96.7%
13,CCOC(=O)\C1=C(/C)NC(=O)N(CC(=O)NC2=CC=C(F)C=C2F)C1C3=CC=CC=C3 (stereo not drawn),96%
14,CCOC(=O)Nc1cccc(C(=O)NCc2ccc(N3CCCC3=O)cc2)c1,107%
15,O=C(COC(=O)c1ccccc1NC(=O)c1ccsc1)NC1CCCC1,99.9%
16,Cc1ccccc1OCCN1C(=O)C(=O)c2cccc(C)c21,109%
17,CCn1c(SCC(=O)NCCc2cccs2)nc2cc(S(N)(=O)=O)ccc21,103%
18,Cc1ccc(CN2C(=O)c3ccccc3C2O)o1 (stereo not drawn),99%
19,CCNC(=O)NC(=O)CSc1nnc(-c2cccc(S(=O)(=O)N(CC)CC)c2)o1,102%

# 2 entries from above, reformatted:
row | SMILES | growth
11 | CCC(Sc1nc2ccc[nH]c-2n1)C(=O)NCC1CCCO1 (stereo not drawn) | 99.2%
12 | Cc1noc(C)c1CCC(=O)N1CCN(CC2CCCO2)CC1 (stereo not drawn) | 98.3%
